Experimental data taken from paper PMC10199099.

Sequences of proteins named here, by UniProt entry; tags and fusion partners are left off. A change or cut given only in a name is not applied to a line headed by its entry.
UniProt Q8BX22: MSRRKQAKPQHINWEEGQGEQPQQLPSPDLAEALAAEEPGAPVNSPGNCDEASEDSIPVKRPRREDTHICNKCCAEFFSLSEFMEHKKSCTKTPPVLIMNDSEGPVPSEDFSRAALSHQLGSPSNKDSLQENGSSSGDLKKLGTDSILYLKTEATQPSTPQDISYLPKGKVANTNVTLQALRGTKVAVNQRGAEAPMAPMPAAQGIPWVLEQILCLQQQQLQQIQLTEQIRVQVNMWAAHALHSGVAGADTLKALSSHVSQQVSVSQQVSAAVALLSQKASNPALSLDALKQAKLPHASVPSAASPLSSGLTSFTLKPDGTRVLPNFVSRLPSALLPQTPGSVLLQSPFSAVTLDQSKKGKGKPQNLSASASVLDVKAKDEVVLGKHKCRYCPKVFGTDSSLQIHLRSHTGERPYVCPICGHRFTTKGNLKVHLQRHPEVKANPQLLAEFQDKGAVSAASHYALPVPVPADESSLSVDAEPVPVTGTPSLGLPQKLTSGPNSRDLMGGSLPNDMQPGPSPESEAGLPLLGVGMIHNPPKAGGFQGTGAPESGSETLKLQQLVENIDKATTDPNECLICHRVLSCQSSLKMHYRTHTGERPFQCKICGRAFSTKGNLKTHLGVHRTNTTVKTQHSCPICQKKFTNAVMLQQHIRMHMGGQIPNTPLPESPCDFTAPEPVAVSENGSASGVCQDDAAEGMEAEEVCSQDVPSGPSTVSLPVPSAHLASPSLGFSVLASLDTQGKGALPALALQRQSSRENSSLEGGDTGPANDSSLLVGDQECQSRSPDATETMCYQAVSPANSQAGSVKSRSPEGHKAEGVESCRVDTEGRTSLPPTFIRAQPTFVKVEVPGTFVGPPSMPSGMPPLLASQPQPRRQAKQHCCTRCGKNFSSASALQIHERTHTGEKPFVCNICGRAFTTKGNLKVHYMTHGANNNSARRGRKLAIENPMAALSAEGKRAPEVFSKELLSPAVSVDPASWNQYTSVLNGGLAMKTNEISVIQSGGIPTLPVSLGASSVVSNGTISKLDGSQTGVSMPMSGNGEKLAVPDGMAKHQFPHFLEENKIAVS
UniProt O35343: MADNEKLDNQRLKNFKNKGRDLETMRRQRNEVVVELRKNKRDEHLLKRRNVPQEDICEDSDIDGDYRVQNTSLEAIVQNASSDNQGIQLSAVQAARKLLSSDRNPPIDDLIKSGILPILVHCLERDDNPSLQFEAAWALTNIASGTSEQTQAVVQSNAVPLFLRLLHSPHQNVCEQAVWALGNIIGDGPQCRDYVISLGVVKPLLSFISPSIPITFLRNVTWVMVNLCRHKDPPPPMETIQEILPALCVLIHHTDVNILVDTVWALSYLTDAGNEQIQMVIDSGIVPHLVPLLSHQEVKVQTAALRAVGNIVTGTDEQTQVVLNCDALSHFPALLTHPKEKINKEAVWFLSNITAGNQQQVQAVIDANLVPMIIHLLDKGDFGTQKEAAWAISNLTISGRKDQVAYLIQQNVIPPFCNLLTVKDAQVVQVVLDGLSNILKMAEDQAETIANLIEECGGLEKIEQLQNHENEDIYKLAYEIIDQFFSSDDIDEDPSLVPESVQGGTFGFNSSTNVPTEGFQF
UniProt P11103: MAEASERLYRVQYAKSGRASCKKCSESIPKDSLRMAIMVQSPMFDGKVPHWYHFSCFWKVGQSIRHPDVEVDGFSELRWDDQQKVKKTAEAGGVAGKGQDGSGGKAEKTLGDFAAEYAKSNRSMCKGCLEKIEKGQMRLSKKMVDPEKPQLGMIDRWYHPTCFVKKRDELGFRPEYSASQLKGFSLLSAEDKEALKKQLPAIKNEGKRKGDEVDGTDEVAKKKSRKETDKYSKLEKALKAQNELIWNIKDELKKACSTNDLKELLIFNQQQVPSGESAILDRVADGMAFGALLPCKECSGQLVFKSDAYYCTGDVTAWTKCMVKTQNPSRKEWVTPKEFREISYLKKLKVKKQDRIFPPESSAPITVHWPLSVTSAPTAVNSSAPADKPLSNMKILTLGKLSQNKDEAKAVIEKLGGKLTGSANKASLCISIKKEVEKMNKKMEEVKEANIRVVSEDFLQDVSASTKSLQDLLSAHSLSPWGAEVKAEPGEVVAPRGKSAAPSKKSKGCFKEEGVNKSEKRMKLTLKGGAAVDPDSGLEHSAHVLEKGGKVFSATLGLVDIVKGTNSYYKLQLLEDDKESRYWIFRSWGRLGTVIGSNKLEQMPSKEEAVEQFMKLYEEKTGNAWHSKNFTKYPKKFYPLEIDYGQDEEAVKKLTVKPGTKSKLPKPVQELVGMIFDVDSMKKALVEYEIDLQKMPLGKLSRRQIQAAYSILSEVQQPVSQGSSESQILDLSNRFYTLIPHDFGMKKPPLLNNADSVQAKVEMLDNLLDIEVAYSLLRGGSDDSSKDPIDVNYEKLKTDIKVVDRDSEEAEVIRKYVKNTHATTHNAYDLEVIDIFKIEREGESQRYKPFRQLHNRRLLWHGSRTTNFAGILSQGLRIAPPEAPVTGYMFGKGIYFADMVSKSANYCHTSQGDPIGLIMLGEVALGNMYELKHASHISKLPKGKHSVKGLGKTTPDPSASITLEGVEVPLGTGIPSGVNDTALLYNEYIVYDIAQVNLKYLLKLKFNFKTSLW

B1: Lig3 (protein, UniProt P97386 1-1015)
chain: MTLAFKILFPRNLCALGRKELCLFPEQNRWAAISQFSQWSETNLLGGCCLLQRRKPVLALQRGHLRPRATHLTFWPGSHVGLCTGPCAMAEQRFCVDYAKRGTAGCKKCKEKIVKGVCRIGKVVPNPFSESGGDMKEWYHIKCMFEKLERARATTKKIEDLTELEGWEELEDNEKEQISQHIADLSSKAAATPKKKAAVQAKLTTTGQVTSPVKGASFITSTNPRKFSGFSAAKPNNSEQAPSSPAPGTSLSASKCDPKHKDCLLREFRKLCAMVAENPSYNTKTQIIHDFLQKGSTGGFSDGFHGDVYLTVKLLLPGVIKSVYNLNDKQIVKLFSRIFNCNPDDMARDLEQGDVSETIRIFFEQSKSFPPAAKSLLTIQEVDAFLLHLSKLTKEDEQQQALQDIASRCTANDLKCIIRLIKHDLKMNSGAKHVLDALDPNAYEAFKASRNLQDVVERVLHNEQEVEKDPGRRRALRVQASLMTPVQPMLAEACKSIEYAMKKCPNGMFSEIKYDGERVQVHKKGDHFSYFSRSLKPVLPHKVAHFKDYIPKAFPGGQSMILDSEVLLIDNNTGKPLPFGTLGVHKKAAFQDANVCLFVFDCIYFNDVSLMDRPLCERRKFLHDNMVEIRNRIMFSEMKQVTKASDLADMINRVIREGLEGLVLKDVKGTYEPGKRHWLKVKKDYLNEGAMADTADLVVLGAFYGQGSKGGMMSIFLMGCYDPDSQKWCTVTKCAGGHDDATLARLQKELVMVKISKDPSKIPSWLKINKIYYPDFIVPDPKKAAVWEITGAEFSRSEAHTADGISIRFPRCTRIRDDKDWKSATNLPQLKELYQLSKDKADFAVVAGDEASPTTGGSSGENEGTAGSAGPCKGPPSKSSASAKTTEQKLNSPSSRGGIKPIPKHSPMKPGEKLAVKSSPVKVGMKRKATDETPCLKKVLLDVFTGVRLYLPPSTPDFKRLKRYFVAFDGDLVQEFDMGSATHVLGNREKNTDAQLVSSEWIWACIRKRRLIAPC
B2: Hmbox1 (protein, UniProt Q8BJA3 1-419)
chain: MLSSFPVVLLETMSHYTDEPRFTIEQIDLLQRLRRTGMTKHEILHALETLDRLDQEHSDKFGRRSSYGGSSYGNSTNNVPASSSTATASTQTQHSGMSPSPSNSYDTSPLPCTTNQNGRENNDRLSTSNGKMSPSRYHANSMGQRSYSFEASEEDLDVDDKVEELMRRDSSVIKEEIKAFLANRRISQAVVAQVTGISQSRISHWLLQQGSDLSEQKKRAFYRWYQLEKTNPGATLSMRPAPIPIEDPEWRQTPPPVSATPGTFRLRRGSRFTWRKECLAVMESYFNENQYPDEAKREEIANACNAVIQKPGKKLSDLERVTSLKVYNWFANRRKEIKRRANIAAILESHGIDVQSPGGHSNSDDVDGNDYSEQDDSTSHSDHQDPISLAVEMAAVNHTILALARQGANEIKTEALDDD
B3: Tfam (protein, UniProt P40630 43-243)
chain: SSMGSYPKKPMSSYLRFSTEQLPKFKAKHPDAKLSELVRKIAALWRELPEAEKKVYEADFKAEWKAYKEAVSKYKEQLTPSQLMGMEKEARQRRLKKKALVKRRELILLGKPKRPRSAYNIYVSESFQEAKDDSAQGKLKLVNEAWKNLSPEEKQAYIQLAKDDRIRYDNEMKSWEEQMAEVGRSDLIRRSVKRSGDISEH

Assays:
[1] = molecular target: SALL4 (UniProt Q8BX22); test: affinity purification with mass spectrometry; WT and K5A mutated SALL4 pull down followed by MS, triplicates; antibody not stated
[2] = molecular target: Sall4^K5A (UniProt Q8BX22); test: as above

| Molecule | binding [1] | binding [2] |
| --- | --- | --- |
| Kpna4 (from UniProt O35343 1-521) | binds | binds |
| Parp1 (from UniProt P11103 1-1013) | binds | binds |
| B1 | binds | binds |
| B2 | binds | binds |
| B3 | binds | binds |

Results are given in words; binding and its absence hold for the method and conditions named. Binding seen in cells or lysates may run through a third protein. These calls come from enrichment with a bait or labelling near it, and not all partners need be listed.
